# Assay results

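Luminescence from an EWS-FLI1 target-promoter (NR0B1) reporter, set against a CMV-promoter reporter, two days after silencing single genes in TC32 Ewing sarcoma cells. Each siRNA was applied at 20 nM. A z-score of the log NR0B1-over-CMV signal, less the median of siRNAs with the same seed; more negative means a stronger specific loss of the NR0B1 reporter.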

This is part of the screen; most of the strongest results are not listed here. Sequences are the guide (antisense) strand, without overhang.

{"sequence": "AUAGAAGUUGCUCAAAUCG", "gene": "SDHB", "seed-corrected z-score": "0.1306"}
{"sequence": "AAUGUAGCAAAUCCAGUAG", "gene": "SLCO4C1", "seed-corrected z-score": "1.56"}
{"sequence": "UAGCAGUGCAAUUUGAAUG", "gene": "TRAPPC4", "seed-corrected z-score": "0.0363"}
{"sequence": "UGAAUUUUAGGAUAAGCAG", "gene": "TM6SF1", "seed-corrected z-score": "1.6"}
{"sequence": "AAUCAUGACACCGUUGACG", "gene": "OR13A1", "seed-corrected z-score": "0.7105"}
{"sequence": "UCCGAUUCAAGUCACGAGG", "gene": "REPS2", "seed-corrected z-score": "0.1833"}
{"sequence": "UUCUCGAAGUCUUCACUCC", "gene": "KCNN2", "seed-corrected z-score": "0.0864"}
{"sequence": "UACAGUGUAUGAUAAGUGC", "gene": "LOC646762", "seed-corrected z-score": "0.2166"}
{"sequence": "UUCUUCUAAGGUGCUCUCC", "gene": "GPRIN3", "seed-corrected z-score": "0.3106"}
{"sequence": "UCAUAUUUUCGGAUUGUUU", "gene": "KLK13", "seed-corrected z-score": "0.9893"}
{"sequence": "UGAUGUACACUCCUAACCC", "gene": "NIN", "seed-corrected z-score": "-0.2568"}
{"sequence": "AAAGCUACAGGUAUCUUUG", "gene": "CX3CL1", "seed-corrected z-score": "0.2513"}
{"sequence": "UUGGUGUCAAAACUCAGCC", "gene": "CIRBP", "seed-corrected z-score": "0.2647"}
{"sequence": "AUCGUCACUAGAGAGCUUG", "gene": "TRAF3IP1", "seed-corrected z-score": "1.01"}
{"sequence": "AGUUCUUUCAUGUCACCGG", "gene": "SLC14A1", "seed-corrected z-score": "-0.897"}
{"sequence": "UCUGUAGCUAGAAAGACGA", "gene": "SIAH2", "seed-corrected z-score": "1.107"}
{"sequence": "AACCUUUCCAUAAGAUCCC", "gene": "ACTR3B", "seed-corrected z-score": "0.8839"}
{"sequence": "UUGCUCACCGUAUUGCUCG", "gene": "PTRF", "seed-corrected z-score": "-0.1089"}
{"sequence": "CAUGUGACAGGGAAACUCU", "gene": "NUTM2F", "seed-corrected z-score": "0.3287"}
{"sequence": "AAUGUACCAAGAAGCUUGC", "gene": "DPYD", "seed-corrected z-score": "-0.07678"}
{"sequence": "UGUUUUAAGAAUACUUCUC", "gene": "ZFYVE28", "seed-corrected z-score": "0.8173"}
{"sequence": "AAAUGAAUAGCUGCAGGUG", "gene": "ZNF548", "seed-corrected z-score": "-0.07648"}
{"sequence": "UCAAAGUCAACGGAGCUGG", "gene": "TMEM63B", "seed-corrected z-score": "-0.568"}
{"sequence": "UCCACGUUCACAUCUCCGC", "gene": "KRT16", "seed-corrected z-score": "-0.1605"}
{"sequence": "AGACCUAUCACUGAUGUCA", "gene": "RERGL", "seed-corrected z-score": "-0.2025"}
{"sequence": "UUCACUGAAAGGAUUGAGC", "gene": "ABRA", "seed-corrected z-score": "1.275"}
{"sequence": "GCAAUGUACACCUCACUCG", "gene": "CAPN10", "seed-corrected z-score": "1.125"}
{"sequence": "UUCUUCUUCAGGCUUUAGG", "gene": "TXNDC2", "seed-corrected z-score": "0.1005"}
{"sequence": "UUUUGAUCAGCUGUAACUC", "gene": "VPS26A", "seed-corrected z-score": "-0.2694"}
{"sequence": "UCUUUGGACAACUCCCUCA", "gene": "CHMP3", "seed-corrected z-score": "0.5463"}
{"sequence": "AGAGCUACCAAAAACUGCC", "gene": "ETV1", "seed-corrected z-score": "-0.7612"}
{"sequence": "UUUCCAUCAAAGAUUAAUG", "gene": "C9orf72", "seed-corrected z-score": "1.004"}
{"sequence": "UCAAGGUUGACAGUUGGGC", "gene": "RPL27A", "seed-corrected z-score": "-1.982"}
{"sequence": "AAAUUAGCAACUACAGAGC", "gene": "C7orf73", "seed-corrected z-score": "-0.5203"}

The first 3 entries again:

* AUAGAAGUUGCUCAAAUCG against SDHB : seed-corrected z-score 0.1306
* AAUGUAGCAAAUCCAGUAG against SLCO4C1 : seed-corrected z-score 1.56
* UAGCAGUGCAAUUUGAAUG against TRAPPC4 : seed-corrected z-score 0.0363

Source: PubChem BioAssay AID1159506 (NCATS, 2015).